Measured data: PubChem BioAssay AID1159584 (Peter MacCallum Cancer Centre, 2016)

- Assay: 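Genes that CDH1-null MCF10A cells selectively depend on to survive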 (primary screen)
- Cells: human MCF10A breast epithelial cells, parental and CDH1-null
- Reagent: siRNA against human genes
- Measured: 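Cell viability by CellTiter-Glo ATP luminescence, each line scaled to the mean of mock wells across plates, then CDH1-null over parental ratio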
- Reading the numbers: CDH1-null / parental viability ratio: higher = CDH1-null cells survive relatively better than parental; CDH1-null viability vs mock: higher = more viable CDH1-null cells; parental viability vs mock: higher = more viable parental cells
The deposit covers about 18,000 reagents; this is a random part of them. The record does not give: the amount of reagent, the time to read-out.

| gene | CDH1-null / parental viability ratio | CDH1-null viability vs mock (fraction of mock) | parental viability vs mock (fraction of mock) |
| --- | --- | --- | --- |
| TCP11L1 (t-complex 11 like 1) | 1.05 | 0.84 | 0.8 |
| CSRNP2 (cysteine and serine rich nuclear protein 2) | 1.04 | 1.08 | 1.04 |
| CLEC14A (C-type lectin domain containing 14A) | 1.04 | 0.54 | 0.52 |
| CUBN (cubilin) | 0.98 | 0.94 | 0.96 |
| CTBP2 (C-terminal binding protein 2) | 0.89 | 0.84 | 0.94 |
| DYSF (dysferlin) | 1.25 | 0.99 | 0.79 |
| PAN2 (poly(A) specific ribonuclease subunit PAN2) | 1 | 0.76 | 0.76 |
| KCNB1 (potassium voltage-gated channel subfamily B member 1) | 1.2 | 0.77 | 0.64 |
| OR51V1 (olfactory receptor family 51 subfamily V member 1) | 1.09 | 0.85 | 0.78 |
| ARAF (A-Raf proto-oncogene, serine/threonine kinase) | 0.95 | 0.94 | 0.99 |
| CCNB1 (cyclin B1) | 0.73 | 0.67 | 0.92 |
| SNUPN (snurportin 1) | 1 | 0.76 | 0.76 |
| MS4A5 (membrane spanning 4-domains A5) | 1.31 | 0.92 | 0.7 |
| SYT13 (synaptotagmin 13) | 1.14 | 0.88 | 0.77 |
| DNAJC12 (DnaJ heat shock protein family (Hsp40) member C12) | 1.08 | 0.56 | 0.52 |
| MKLN1 (muskelin 1) | 0.72 | 0.62 | 0.86 |
| XPNPEP3 (X-prolyl aminopeptidase 3) | 1.56 | 0.53 | 0.34 |
| SCN1A (sodium voltage-gated channel alpha subunit 1) | 1.12 | 0.94 | 0.84 |
| TYMSOS (TYMS opposite strand RNA) | 1.03 | 0.34 | 0.33 |
| AKT1 (AKT serine/threonine kinase 1) | 0.84 | 0.67 | 0.8 |
| COX7A2L (cytochrome c oxidase subunit 7A2 like) | 0.89 | 0.64 | 0.72 |
| CPAMD8 (C3 and PZP like alpha-2-macroglobulin domain containing 8) | 1.46 | 0.7 | 0.48 |
| CUTA (cutA divalent cation tolerance homolog) | 1 | 0.86 | 0.86 |
| ARL4C (ARF like GTPase 4C) | 1.21 | 0.97 | 0.8 |
| MTMR14 (myotubularin related protein 14) | 1.51 | 0.86 | 0.57 |
| ZNF407 (zinc finger protein 407) | 1.22 | 1.12 | 0.92 |
| MSMO1 (methylsterol monooxygenase 1) | 1.11 | 1.04 | 0.94 |
| SUDS3 (SIN3A corepressor complex component SDS3) | 1.05 | 0.9 | 0.86 |
| TACC3 (transforming acidic coiled-coil containing protein 3) | 1.03 | 0.79 | 0.77 |
| GJD2 (gap junction protein delta 2) | 0.64 | 0.54 | 0.84 |
| ACBD4 (acyl-CoA binding domain containing 4) | 0.89 | 1 | 1.12 |
| NEUROD1 (neuronal differentiation 1) | 1.1 | 1 | 0.91 |
| ZNF473 (zinc finger protein 473) | 1.01 | 0.79 | 0.78 |
| LEMD2 (LEM domain nuclear envelope protein 2) | 1.16 | 0.86 | 0.74 |
| EP300 (EP300 lysine acetyltransferase) | 1.09 | 0.88 | 0.81 |
| RAB39B (RAB39B, member RAS oncogene family) | 0.98 | 0.9 | 0.92 |
| CFAP221 (cilia and flagella associated protein 221) | 0.76 | 0.6 | 0.79 |
| COL4A6 (collagen type IV alpha 6 chain) | 1.26 | 1.08 | 0.86 |
| UTP20 (UTP20 small subunit processome component) | 0.85 | 0.82 | 0.96 |
| CNPPD1 (cyclin Pas1/PHO80 domain containing 1) | 0.86 | 0.57 | 0.66 |
| CDYL (chromodomain Y like) | 1 | 0.84 | 0.84 |
| LCE5A (late cornified envelope 5A) | 0.76 | 0.62 | 0.82 |
| B3GAT3 (beta-1,3-glucuronyltransferase 3) | 0.84 | 0.69 | 0.82 |
| IGIP (IgA inducing protein) | 1.19 | 1.02 | 0.86 |
| RCHY1 (ring finger and CHY zinc finger domain containing 1) | 0.97 | 0.95 | 0.98 |
| CA13 (carbonic anhydrase 13) | 1 | 1.02 | 1.02 |
| ELF3 (E74 like ETS transcription factor 3) | 0.99 | 0.91 | 0.92 |
| FUBP1 (far upstream element binding protein 1) | 0.9 | 0.8 | 0.89 |
| SACK1G (scaffolding CK1 anchoring protein G) | 0.96 | 0.79 | 0.82 |
| KIF15 (kinesin family member 15) | 1.04 | 0.73 | 0.7 |
| CYB5R2 (cytochrome b5 reductase 2) | 0.99 | 0.82 | 0.83 |
| OLA1 (Obg like ATPase 1) | 1 | 0.94 | 0.94 |
| SH2D4B (SH2 domain containing 4B) | 1.13 | 0.95 | 0.84 |
| LY86 (lymphocyte antigen 86) | 1.09 | 0.96 | 0.88 |
| FSCN3 (fascin actin-bundling protein 3) | 0.86 | 0.55 | 0.64 |
| LARGE1 (LARGE xylosyl- and glucuronyltransferase 1) | 0.74 | 0.59 | 0.8 |
| XAF1 (XIAP associated factor 1) | 0.96 | 1.08 | 1.12 |
| PLIN3 (perilipin 3) | 0.96 | 0.5 | 0.52 |
| SPRR2F (small proline rich protein 2F) | 0.71 | 0.63 | 0.89 |
| SEC61G (SEC61 translocon subunit gamma) | 0.99 | 0.81 | 0.82 |
| SETDB2 (SET domain bifurcated histone lysine methyltransferase 2) | 0.9 | 0.95 | 1.05 |
| RHOV (ras homolog family member V) | 0.75 | 0.4 | 0.53 |
| TBC1D9B (TBC1 domain family member 9B) | 1.01 | 0.78 | 0.77 |
| IRS2 (insulin receptor substrate 2) | 0.51 | 0.36 | 0.7 |
| KCNJ5-AS1 (KCNJ5 antisense RNA 1) | 1.02 | 0.56 | 0.55 |
| H2BC12 (H2B clustered histone 12) | 0.79 | 0.88 | 1.12 |
| TMEM126B (transmembrane protein 126B) | 1.03 | 0.97 | 0.94 |
| NMBR (neuromedin B receptor) | 0.85 | 0.77 | 0.91 |

5 of these entries, reformatted.
gene	CDH1-null / parental viability ratio	CDH1-null viability vs mock (fraction of mock)	parental viability vs mock (fraction of mock)
FSCN3 (fascin actin-bundling protein 3)	0.86	0.55	0.64
LARGE1 (LARGE xylosyl- and glucuronyltransferase 1)	0.74	0.59	0.8
XAF1 (XIAP associated factor 1)	0.96	1.08	1.12
PLIN3 (perilipin 3)	0.96	0.5	0.52
SPRR2F (small proline rich protein 2F)	0.71	0.63	0.89
